{"source": "the supplement of paper PMC7238544", "note": "Counter-ions that a name gives are not always drawn. ± gives the standard deviation of the averaged measurements. The list shows a part of the results. The data scatter; read single values as rough."}
{"tested_on": "hAMSC donor 2", "assay": "transgenic luciferase activity (RLU/mg protein) fold change vs vehicle control (ratio); hAMSC are human adipose-derived mesenchymal stem cells given an EGFP-luciferase plasmid by lipofection; higher = more transgene expression", "conditions": "priming compound concentration 1.7 µM"}
{"smiles": "CC(C)C[C@H](NC(=O)[C@@H](COC(C)(C)C)NC(=O)[C@H](Cc1ccc(O)cc1)NC(=O)[C@H](CO)NC(=O)[C@H](Cc1c[nH]c2ccccc12)NC(=O)[C@H](Cc1cnc[nH]1)NC(=O)[C@@H]1CCC(=O)N1)C(=O)N[C@@H](CCCNC(=N)N)C(=O)N1CCC[C@H]1C(=O)NNC(N)=O", "note": "[Goserelin acetate]", "transgenic luciferase activity": "0.856 ± 0.091"}
{"smiles": "CCN(CC)CC(=O)Nc1c(C)cccc1C", "note": "[Lidocaine]", "transgenic luciferase activity": "0.34 ± 0.16"}
{"smiles": "C=CC[C@@H]1/C=C(\\C)C[C@H](C)C[C@H](OC)[C@H]2O[C@@](O)(C(=O)C(=O)N3CCCC[C@H]3C(=O)O[C@H](/C(C)=C/[C@@H]3CC[C@@H](O)[C@H](OC)C3)[C@H](C)[C@@H](O)CC1=O)[C@H](C)C[C@@H]2OC", "note": "[Tacrolimus]", "transgenic luciferase activity": "0.93 ± 0.23"}
{"smiles": "CC[C@@H](CO)NCCN[C@@H](CC)CO", "note": "[Ethambutol]", "transgenic luciferase activity": "1.09 ± 0.3"}
{"smiles": "O=C(O)CCCc1ccccc1", "note": "[4-Phenylbutyric acid]", "transgenic luciferase activity": "0.91 ± 0.55"}
{"smiles": "O=c1c(-c2ccccc2)c1-c1ccccc1", "note": "[Diphenylcyclopropenone]", "transgenic luciferase activity": "0.831 ± 0.09"}
{"smiles": "COc1c(N2CCNC(C)C2)c(F)cc2c(=O)c(C(=O)O)cn(C3CC3)c12", "note": "(stereo not given) [Gatifloxacin]", "transgenic luciferase activity": "0.874 ± 0.17"}
{"smiles": "Cc1cnc(C(=O)NCCc2ccc(S(=O)(=O)NC(=O)NC3CCCCC3)cc2)cn1", "note": "[Glipizide]", "transgenic luciferase activity": "1.15 ± 0.29"}
{"smiles": "CN1CCN(CCCN2c3ccccc3Sc3ccc(Cl)cc32)CC1", "note": "[Prochlorperazine maleate]", "transgenic luciferase activity": "0.597 ± 0.35"}
{"smiles": "C=C1/C(=C\\C=C2/CCC[C@]3(C)[C@@H]([C@H](C)CCCC(C)(C)O)CC[C@@H]23)C[C@@H](O)C[C@@H]1O", "note": "[Calcitriol]", "transgenic luciferase activity": "1.6 ± 0.093"}
